Test results reported in patent US20230332230A1, “BIOMARKERS AND USES THEREOF IN THE TREATMENT OF CHRONIC HEPATITIS B INFECTION” (Janssen Sciences Ireland Unlimited Company, priority 2020, published 2023).
For at least one compound, name, drawing or mass did not settle the structure.

Tested on: chronic hepatitis B (CHB) patients
Experiment: Time to virological relapse after discontinuation of NUC treatment (Cox proportional hazard regression)
Assay type: in vivo, human
Conditions: Table 5, Example 1, treatment regimen vs entecavir, after stop of treatment
Text: Patients and Study Design: In this multi-center prospective study in Taiwan, 242 CHB patients were enrolled while in their last half year of a minimum 3-year treatment regimen with direct antivirals. Of them, 47 were excluded due to protocol violation, screening failure, lost to follow-up, withdrawal by the subject, use of immune related therapy, or on-treatment clinical relapse. An additional 14 were excluded as the analysis required patients to be hepatitis B e-antigen (HBeAg) negative, hepatitis virus (HBV) DNA < 60 IU/mL, and alanine transaminase (ALT) < 80 U/L at the last on-treatment visit, leaving 186 patients eligible for analysis. […]
Statistical Analysis: Continuous variables are presented as means ± standard deviations, categorical variables by counts and percentages. […] Cumulative incidence of virological and clinical relapse after stop of treatment was assessed by Kaplan-Meier curves including the log-rank test. […]
Statistical Analysis of Genetics Data: All the statistical analyses were performed in R (3.4.3). The association between the SNPs and the time to clinical relapse and time to viral relapse was assessed using a Cox proportional hazard model, considering the prior treatment. • Surv(TIME_VIRAL_RELAPSE,STATUS_VIRAL_RELAPSE) ~ GENETIC + LAST_TREATMENT • Surv(TIME_CLINICAL _RELAPSE,STATUS_CLINICAL_RELAPSE) ~ GENETIC + LAST_TREATMENT […]

C[C@H](Cn1cnc2c(N)ncnc21)OCP(=O)(O)O [Tenofovir, tenofovir]
Virological relapse, multivariate analysis HR (95% CI): 3.02
